{"sequences": {"note": "Protein sequences, listed by entry. Tags and fused reporters are not part of them.", "UniProt P53678, whole entry": "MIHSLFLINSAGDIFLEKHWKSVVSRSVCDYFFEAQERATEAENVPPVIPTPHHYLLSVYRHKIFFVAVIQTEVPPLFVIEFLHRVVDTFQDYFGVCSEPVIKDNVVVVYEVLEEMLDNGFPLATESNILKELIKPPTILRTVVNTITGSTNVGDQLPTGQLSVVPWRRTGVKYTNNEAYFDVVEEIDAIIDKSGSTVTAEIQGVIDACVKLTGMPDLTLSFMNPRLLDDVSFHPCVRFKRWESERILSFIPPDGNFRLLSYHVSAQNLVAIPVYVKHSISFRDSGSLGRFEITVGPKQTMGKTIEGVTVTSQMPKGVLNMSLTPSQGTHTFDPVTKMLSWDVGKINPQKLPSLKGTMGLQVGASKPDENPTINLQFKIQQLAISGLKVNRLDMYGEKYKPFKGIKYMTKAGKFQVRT"}, "source": "paper PMC4022726", "key": {"[1]": {"biological_target": "NiV-F cytosolic tail (residues 519-546) (Nipah virus) (UniProt Q9IH63)", "assay": "two-hybrid"}, "[2]": {"biological_target": "NiV-G cytosolic tail (residues 1-45) (Nipah virus) (UniProt Q9IH62)", "assay": "two-hybrid"}}, "note": "These are yes or no findings as the source states them, for the method shown.", "data": [{"substance": "μ3B subunit of AP-3 (Gal4 activation domain fusion) (from UniProt P53678 1-418)", "values": [{"measurement": "binding", "setting": "[1]", "result": "no binding"}, {"measurement": "binding", "setting": "[2]", "result": "no binding"}]}]}
